From patent publication US6197752A, “Glycomimetics as selectin antagonists and pharmaceuticals having antiinflammatory activity prepared therefrom” (Glycorex AB, priority 1995, dated 2001) come the findings set out here.

The structures appear in SMILES notation.

In the data set the test system is leukocyte adhesion on the endothelium. As to the kind of experiment: LPS-induced leukocyte adhesion in vivo, intravital microscopy in the mesenterium of the rat. The conditions noted are these: SPRD (m). The source says: In inflammatory processes and other states which activate the cytokines, a critical part is played by the destruction of tissue by means of leukocytes which migrate in or which block the microcirculation. The first phase, which is critical for the subsequent course of the disease, is the activation of leukocytes within the blood stream, especially in the pre- and post-capillary area. […] All subsequent leukocyte effects, i.e. active migration through the vessel wall and subsequent oriented migration in the tissue, are secondary reactions (Harlan, J. M., Leukocyte-endothelial interaction, Blood 65, 513-525,1985).
This receptor-mediated interaction of leukocytes and endothelial cells is regarded as an initial sign of the inflammation process. In addition to the merely physiologically expressed adhesion molecules, under the action of inflammation mediators (leukotrienes, PAF) and cytokines (TNF-alpha, interleukins) there is massive, chronologically graduated expression of adhesion molecules on the cells. They are currently subdivided into three groups: 1. immunoglobulin gene superfamily, 2. integrins and 3. selectins. Whereas adhesion between molecules of the Ig gene superfamily takes place by way of protein-protein bonds, in the case of cooperation between selectins it is lectin-carbohydrate bonds which are principally involved (Springer, T. A., Adhesion receptors of the immune system. Nature 346, 425-434, 1990; Huges, G., Cell adhesion molecules--the key to a universal panacea, Scrips Magazine 6, 30-33,1993; Springer, T. A., Traffic signals for lymphocyte recirculation and leukocyte emigration; The multistep paradigm. Cell 76, 301-314,1994).
The induced adhesion of leukocytes is quantified by an investigation technique involving intravital microscopy in the mesenterium of the rat (Atherton A. and Born G.V.R., Quantitative investigations of the adhesiveness of circulating polymorphonuclear leukocytes to blood vessel walls. J. Physiol. 222, 447-474,1972; Seiffge, D. Methoden zur Untersuchung der Rezeptor-vermittelten Interaktion zwischen Leukozyten und Endotheizellen im Entzundungsgeschehen [Methods of investigating receptor-mediated interaction between leukocytes and endothelial cells in the case of inflammation] in: Ersatz- und Erganzungsmethoden zu Tierversuchen in der biomedizinischen Forschung, Schoffl, H. et al., (eds.) Springer, 1995 (in press)). Under ether-inhalation anesthesia, long-term anesthesia is induced by intramuscular injection of urethane (1.25 mg/kg BW). […] The resulting increased adhesion of leukocytes on the endothelium is quantified directly by vital microscopy or with the aid of fluorescent dyes. All measurement operations are recorded by video camera and stored on a video recorder.

`C[C@@H]1O[C@@H](CCCOC(=O)N2CCC(C(=O)O)CC2)[C@@H](O)[C@H](O)[C@@H]1O` [Compound 12c]: for the setting “3 mg/kg, 1 day i.v.”, the fibrinogen was determined as 109 mg/100 mL and the leukocytes is on record as 8.7 +/- 0.9 10^3/mm^3. For the setting “20 mg/kg, 1 day p.o.”, the fibrinogen is given as 137 +/- 10.0 mg/100 mL and the leukocytes is listed as 7.6 10^3/mm^3.
